These are yes or no findings as the source states them, for the method shown. Where a sequence is shown, tags or fusion partners need not be part of it.

For this assay, the target named is histidine phosphocarrier protein (HPr) kinase/phosphorylase of Bacillus subtilis (Bacillus subtilis) (UniProt O34483). Put plainly: condition: only in pure water (pH 7.2-7.4), without buffer; 32 µM; dynamic light scattering (DLS); pure water (pH 7.2-7.4), 32 µM protein, 25 °C; MW from the Stokes-Einstein equation assuming a sphere; both purified.

B1: histidine phosphocarrier protein (HPr) kinase/phosphorylase of Bacillus subtilis (enzyme, UniProt O34483 1-310, looked up)
chain: MAKVRTKDVMEQFNLELISGEEGINRPITMSDLSRPGIEIAGYFTYYPRERVQLLGKTELSFFEQLPEEEKKQRMDSLCTDVTPAIILSRDMPIPQELIDASEKNGVPVLRSPLKTTRLSSRLTNFLESRLAPTTAIHGVLVDIYGVGVLITGKSGVGKSETALELVKRGHRLVADDCVEIRQEDQDTLVGNAPELIEHLLEIRGLGIINVMTLFGAGAVRSNKRITIVMNLELWEQGKQYDRLGLEEETMKIIDTEITKLTIPVRPGRNLAVIIEVAAMNFRLKRMGLNAAEQFTNKLADVIEDGEQEE
notes: HPr kinase/phosphorylase (HPrK/P) of Bacillus subtilis; theoretical molecular weight 36.6 kDa including the His-tag; Vector was a gift from Dr. A. Galinier; Oligomeric state depends on the buffer: monomer in pure water (DLS), mainly hexamer in 50 mM sodium phosphate pH 7.0; also called bsHPrK/P; HPrK/P; source: E. coli BL21 (DE3), purified (Ni-resin, Superdex 200 gel filtration), dialysed against …
For the molecule B1, the binding result is on record as “no binding”.
